Literature values in US20120058499A1, “Bioluminescent Detection of Protease Activity” (priority 2010, published 2012).
The name of at least one read-out is uncertain.

Target: T1, UCHL3 (Homo sapiens, UniProt P15374)
T1 sequence (P15374 1-230): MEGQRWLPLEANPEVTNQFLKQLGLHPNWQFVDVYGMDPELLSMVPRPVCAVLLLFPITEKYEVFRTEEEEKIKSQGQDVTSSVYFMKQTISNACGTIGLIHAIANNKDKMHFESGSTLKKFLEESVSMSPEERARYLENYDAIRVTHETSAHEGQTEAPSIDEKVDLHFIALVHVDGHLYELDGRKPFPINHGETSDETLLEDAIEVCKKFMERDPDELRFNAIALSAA
Conditions: UCHL3 activity; cited from earlier work

Row | Substance | kcat/Km
1 | ubiquitin-7-amino-4-methylcoumarin [Ub-AMC] | 1.78e+08 M⁻¹ s⁻¹
2 | Z-Leu-Arg-Gly-Gly (SEQ ID NO: 29)-AFC (7-amino-4-trifluoromethylcoumarin) (LRGG; N-terminal carboxybenzyl, C-terminal AFC) [carboxybenzyl tetrapeptide with 7-amino-4-trifluoromethylcoumarin, literature substrate] | 2.4 M⁻¹ s⁻¹
